± gives the standard deviation of the averaged measurements. The list shows a part of the results, in another mix than the full data.
Compound: Nc1ncnc2c1ncn2[C@@H]1O[C@H](COP(=O)(O)OP(=O)(O)NP(=O)(O)O)[C@@H](O)[C@H]1O [adenylyl imidodiphosphate]
Assay: NP40-soluble protein abundance relative to vehicle (solubility fold change) (ratio); higher = more soluble protein in presence of AMP-PNP
Outline: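 Values are fold changes against the detergent-processed vehicle, based on vsn-normalised intensities. Jurkat crude lysate was treated at eight concentrations from 0.1 to 10 mM (10 min at room temperature, then 3 min at 37 °C), solubilised with 0.8% NP40 and benzonase, ultracentrifuged and analysed by TMT-labelled LC-MS/MS over three independent experiments.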

The chains behind the UniProt entries cited, without tags or fusion partners. Where a name states a change or a piece, a line headed by the entry shows the natural chain unless it says otherwise.
UniProt Q7Z589: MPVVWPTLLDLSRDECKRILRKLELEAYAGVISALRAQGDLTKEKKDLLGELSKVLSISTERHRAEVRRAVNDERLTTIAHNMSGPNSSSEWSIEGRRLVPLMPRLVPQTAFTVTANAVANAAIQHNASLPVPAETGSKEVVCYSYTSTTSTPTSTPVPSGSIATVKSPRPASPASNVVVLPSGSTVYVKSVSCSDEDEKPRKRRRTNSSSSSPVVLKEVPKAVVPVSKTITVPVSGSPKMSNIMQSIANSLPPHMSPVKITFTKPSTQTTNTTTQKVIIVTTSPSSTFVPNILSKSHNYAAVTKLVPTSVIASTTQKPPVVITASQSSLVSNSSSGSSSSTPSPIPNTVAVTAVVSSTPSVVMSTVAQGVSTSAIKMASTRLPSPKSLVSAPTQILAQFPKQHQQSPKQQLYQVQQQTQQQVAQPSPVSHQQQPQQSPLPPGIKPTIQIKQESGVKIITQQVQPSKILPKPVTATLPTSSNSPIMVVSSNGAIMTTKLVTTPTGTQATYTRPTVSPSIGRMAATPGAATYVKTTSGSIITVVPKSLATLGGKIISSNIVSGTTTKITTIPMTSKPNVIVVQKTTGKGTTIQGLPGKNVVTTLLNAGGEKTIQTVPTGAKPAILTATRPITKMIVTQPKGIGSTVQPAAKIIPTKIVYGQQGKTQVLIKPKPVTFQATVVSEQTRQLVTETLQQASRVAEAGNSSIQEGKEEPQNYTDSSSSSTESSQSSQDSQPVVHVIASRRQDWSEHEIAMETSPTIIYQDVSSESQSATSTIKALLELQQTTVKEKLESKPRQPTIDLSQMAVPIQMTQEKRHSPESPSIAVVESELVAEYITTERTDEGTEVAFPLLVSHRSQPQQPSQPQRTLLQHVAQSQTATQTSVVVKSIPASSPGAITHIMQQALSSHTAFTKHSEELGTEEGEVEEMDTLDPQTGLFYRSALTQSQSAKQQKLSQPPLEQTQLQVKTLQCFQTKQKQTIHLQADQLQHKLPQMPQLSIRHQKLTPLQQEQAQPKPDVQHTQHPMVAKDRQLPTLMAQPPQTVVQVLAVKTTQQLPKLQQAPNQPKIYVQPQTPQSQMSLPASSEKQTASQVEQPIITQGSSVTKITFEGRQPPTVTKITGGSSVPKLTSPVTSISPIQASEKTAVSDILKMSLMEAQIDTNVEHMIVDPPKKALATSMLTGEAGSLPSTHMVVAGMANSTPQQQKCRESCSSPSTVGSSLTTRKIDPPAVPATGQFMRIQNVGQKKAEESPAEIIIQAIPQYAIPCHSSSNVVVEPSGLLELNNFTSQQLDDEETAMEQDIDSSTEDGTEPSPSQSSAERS
UniProt Q9HAW4: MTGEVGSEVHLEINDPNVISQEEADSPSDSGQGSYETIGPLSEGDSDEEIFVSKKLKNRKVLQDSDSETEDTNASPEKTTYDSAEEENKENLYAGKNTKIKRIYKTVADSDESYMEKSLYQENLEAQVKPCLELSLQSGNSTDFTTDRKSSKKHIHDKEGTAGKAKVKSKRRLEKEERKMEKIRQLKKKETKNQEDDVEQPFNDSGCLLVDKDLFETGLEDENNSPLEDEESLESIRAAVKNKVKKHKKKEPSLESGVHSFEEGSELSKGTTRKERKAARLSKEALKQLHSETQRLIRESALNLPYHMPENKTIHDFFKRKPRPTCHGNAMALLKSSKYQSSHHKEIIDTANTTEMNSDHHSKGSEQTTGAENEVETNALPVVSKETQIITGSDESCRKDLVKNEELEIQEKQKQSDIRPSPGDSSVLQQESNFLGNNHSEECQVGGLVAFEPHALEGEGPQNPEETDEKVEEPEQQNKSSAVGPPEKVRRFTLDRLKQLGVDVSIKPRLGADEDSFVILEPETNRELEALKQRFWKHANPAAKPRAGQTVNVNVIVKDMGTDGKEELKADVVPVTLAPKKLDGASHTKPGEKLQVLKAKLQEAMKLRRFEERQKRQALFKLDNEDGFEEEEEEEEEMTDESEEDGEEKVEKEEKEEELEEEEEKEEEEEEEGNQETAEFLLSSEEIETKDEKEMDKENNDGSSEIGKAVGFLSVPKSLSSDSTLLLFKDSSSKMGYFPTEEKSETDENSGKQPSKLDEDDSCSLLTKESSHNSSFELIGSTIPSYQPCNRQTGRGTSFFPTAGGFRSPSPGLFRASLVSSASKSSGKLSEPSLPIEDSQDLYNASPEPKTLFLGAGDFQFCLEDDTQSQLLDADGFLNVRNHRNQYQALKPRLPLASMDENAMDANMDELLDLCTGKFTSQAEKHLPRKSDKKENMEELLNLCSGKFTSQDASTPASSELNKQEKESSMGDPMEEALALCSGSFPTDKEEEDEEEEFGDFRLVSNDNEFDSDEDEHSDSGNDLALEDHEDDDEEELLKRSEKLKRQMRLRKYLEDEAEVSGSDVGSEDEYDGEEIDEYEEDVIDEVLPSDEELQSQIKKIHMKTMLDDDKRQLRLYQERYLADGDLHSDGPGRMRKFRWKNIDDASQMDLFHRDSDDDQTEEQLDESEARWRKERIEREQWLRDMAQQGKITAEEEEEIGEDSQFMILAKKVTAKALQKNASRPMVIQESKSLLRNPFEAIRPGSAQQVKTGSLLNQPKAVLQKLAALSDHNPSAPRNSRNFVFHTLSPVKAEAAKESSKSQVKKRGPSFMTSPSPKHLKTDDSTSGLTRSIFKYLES
UniProt Q5HYJ3: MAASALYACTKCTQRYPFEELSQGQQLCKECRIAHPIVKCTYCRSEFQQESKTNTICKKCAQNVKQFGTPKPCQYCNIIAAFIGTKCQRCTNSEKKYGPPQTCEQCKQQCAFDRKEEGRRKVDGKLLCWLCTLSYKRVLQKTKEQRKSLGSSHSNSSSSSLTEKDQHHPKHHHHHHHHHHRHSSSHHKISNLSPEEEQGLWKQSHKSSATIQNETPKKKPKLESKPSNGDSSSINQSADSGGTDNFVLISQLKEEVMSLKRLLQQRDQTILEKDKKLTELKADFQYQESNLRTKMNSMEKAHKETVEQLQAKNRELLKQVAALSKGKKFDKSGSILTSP
UniProt Q9Y478: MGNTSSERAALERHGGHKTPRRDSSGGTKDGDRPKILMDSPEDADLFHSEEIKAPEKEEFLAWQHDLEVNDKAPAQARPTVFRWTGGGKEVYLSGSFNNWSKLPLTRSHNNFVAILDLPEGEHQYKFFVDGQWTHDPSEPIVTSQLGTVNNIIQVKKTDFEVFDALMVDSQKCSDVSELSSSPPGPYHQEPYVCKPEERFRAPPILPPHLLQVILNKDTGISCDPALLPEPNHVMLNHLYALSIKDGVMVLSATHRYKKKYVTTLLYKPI
UniProt Q9NUJ3: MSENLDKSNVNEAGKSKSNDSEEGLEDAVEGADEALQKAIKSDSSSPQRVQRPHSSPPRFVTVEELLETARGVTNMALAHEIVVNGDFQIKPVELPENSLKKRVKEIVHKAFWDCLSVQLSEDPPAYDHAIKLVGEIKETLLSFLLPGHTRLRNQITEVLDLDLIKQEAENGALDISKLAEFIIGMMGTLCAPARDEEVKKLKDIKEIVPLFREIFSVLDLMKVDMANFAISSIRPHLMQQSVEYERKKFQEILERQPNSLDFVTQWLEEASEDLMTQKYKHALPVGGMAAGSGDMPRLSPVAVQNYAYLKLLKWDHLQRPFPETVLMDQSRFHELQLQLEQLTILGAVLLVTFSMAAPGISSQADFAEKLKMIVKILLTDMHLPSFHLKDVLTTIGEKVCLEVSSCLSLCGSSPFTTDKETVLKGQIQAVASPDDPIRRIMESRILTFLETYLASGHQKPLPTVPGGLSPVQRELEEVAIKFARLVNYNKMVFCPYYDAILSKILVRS
UniProt P05556, whole entry: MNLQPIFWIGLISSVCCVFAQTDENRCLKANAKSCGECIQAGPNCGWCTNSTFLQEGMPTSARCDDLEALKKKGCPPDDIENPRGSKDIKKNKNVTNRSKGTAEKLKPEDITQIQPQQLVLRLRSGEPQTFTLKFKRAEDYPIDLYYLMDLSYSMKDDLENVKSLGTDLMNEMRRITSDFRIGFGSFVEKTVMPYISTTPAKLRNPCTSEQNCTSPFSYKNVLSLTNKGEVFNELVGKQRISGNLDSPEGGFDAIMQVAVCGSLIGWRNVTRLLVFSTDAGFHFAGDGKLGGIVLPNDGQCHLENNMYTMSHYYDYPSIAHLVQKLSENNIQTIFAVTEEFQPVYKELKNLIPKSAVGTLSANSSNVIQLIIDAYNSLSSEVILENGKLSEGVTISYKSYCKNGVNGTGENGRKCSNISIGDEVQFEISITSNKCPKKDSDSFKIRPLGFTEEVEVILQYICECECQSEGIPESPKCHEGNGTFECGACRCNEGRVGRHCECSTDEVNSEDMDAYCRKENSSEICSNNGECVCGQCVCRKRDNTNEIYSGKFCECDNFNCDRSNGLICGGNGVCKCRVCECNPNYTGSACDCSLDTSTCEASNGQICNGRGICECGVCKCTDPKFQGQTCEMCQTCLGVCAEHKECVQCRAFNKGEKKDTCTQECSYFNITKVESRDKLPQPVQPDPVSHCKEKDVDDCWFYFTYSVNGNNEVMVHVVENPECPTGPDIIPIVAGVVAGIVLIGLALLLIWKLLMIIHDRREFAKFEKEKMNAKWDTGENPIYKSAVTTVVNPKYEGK
UniProt P14621: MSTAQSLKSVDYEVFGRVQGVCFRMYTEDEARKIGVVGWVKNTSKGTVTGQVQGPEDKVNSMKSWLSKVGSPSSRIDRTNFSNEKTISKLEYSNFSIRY
UniProt Q9H9L4: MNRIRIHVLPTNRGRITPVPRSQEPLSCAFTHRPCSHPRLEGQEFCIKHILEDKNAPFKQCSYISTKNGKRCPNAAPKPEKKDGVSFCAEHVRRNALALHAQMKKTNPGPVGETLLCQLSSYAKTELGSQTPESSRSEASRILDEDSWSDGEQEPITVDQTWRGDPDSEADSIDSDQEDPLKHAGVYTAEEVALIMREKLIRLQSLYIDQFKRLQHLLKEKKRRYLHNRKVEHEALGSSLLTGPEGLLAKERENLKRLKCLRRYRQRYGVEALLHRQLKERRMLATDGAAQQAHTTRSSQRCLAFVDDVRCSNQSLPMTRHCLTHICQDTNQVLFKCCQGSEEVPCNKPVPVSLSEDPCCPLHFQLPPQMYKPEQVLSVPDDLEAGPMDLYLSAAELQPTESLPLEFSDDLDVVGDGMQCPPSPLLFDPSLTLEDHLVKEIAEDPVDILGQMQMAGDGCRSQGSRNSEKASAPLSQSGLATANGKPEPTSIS
UniProt Q16342: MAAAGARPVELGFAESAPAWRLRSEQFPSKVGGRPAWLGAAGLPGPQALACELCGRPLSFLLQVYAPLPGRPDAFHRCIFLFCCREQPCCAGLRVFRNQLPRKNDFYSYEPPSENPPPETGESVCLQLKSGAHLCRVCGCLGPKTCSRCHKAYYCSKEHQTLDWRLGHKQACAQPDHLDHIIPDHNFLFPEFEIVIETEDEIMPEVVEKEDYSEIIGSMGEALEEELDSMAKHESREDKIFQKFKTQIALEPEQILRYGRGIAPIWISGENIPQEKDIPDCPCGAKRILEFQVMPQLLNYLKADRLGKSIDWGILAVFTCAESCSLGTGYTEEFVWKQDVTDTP
UniProt O95267: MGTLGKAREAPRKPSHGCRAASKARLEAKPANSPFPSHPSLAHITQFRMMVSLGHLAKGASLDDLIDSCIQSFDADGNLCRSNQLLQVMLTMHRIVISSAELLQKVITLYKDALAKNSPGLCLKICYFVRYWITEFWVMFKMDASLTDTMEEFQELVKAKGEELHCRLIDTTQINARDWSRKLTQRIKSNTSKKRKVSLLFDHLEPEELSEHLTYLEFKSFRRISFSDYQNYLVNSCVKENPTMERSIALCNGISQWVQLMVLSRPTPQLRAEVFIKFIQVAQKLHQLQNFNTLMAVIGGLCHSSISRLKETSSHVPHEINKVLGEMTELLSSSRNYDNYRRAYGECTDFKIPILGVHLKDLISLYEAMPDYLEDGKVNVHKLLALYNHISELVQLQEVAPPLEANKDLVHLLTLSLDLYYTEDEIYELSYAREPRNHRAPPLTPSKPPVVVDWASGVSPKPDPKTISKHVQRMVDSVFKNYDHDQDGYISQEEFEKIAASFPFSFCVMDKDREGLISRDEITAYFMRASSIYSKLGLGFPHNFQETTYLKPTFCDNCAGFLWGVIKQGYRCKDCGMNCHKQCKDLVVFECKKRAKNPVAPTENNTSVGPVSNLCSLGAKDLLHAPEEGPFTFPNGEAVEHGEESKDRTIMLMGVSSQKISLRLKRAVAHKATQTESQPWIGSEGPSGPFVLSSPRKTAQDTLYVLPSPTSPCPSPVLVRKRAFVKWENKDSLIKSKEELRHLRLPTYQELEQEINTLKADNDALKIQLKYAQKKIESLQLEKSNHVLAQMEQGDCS
UniProt Q14493, whole entry, looked up: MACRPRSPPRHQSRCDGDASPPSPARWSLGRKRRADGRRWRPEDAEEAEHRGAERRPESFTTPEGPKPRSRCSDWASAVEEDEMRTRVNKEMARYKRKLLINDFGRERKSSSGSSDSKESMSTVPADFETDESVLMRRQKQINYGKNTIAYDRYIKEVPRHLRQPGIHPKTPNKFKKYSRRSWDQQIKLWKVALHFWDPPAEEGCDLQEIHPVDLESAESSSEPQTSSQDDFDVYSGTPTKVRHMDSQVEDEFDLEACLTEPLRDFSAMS

Target	NP40-soluble protein abundance (concentration: 1mM)	NP40-soluble protein abundance (concentration: 2mM)	NP40-soluble protein abundance (concentration: 4mM)	NP40-soluble protein abundance (concentration: 6mM)	NP40-soluble protein abundance (concentration: 8mM)	NP40-soluble protein abundance (concentration: 10mM)
E9PB61 and related entries (UniProt Q86V81)	0.969 ± 0.032	1.08 ± 0.042	1.09 ± 0.027	1.27 ± 0.081	1.41 ± 0.14	1.6 ± 0.28
E9PMC9 and related entries (UniProt Q7Z589)	1.03 ± 0.027	1.03 ± 0.021	1.05 ± 0.022	1.027 ± 0.0091	1.05 ± 0.022	1.11 ± 0.046
E7EQI7 and related entries (UniProt Q12768)	0.998 ± 0.032	0.953 ± 0.036	0.994 ± 0.031	0.977 ± 0.04	1 ± 0.029	0.97 ± 0.019
E7ESG2 and related entries (UniProt Q9HAW4)	0.994 ± 0.02	1.03 ± 0.044	1.01 ± 0.018	1.05 ± 0.018	1.03 ± 0.038	1.04 ± 0.042
F5GX09 and related entries (UniProt Q5HYJ3)	1 ± 0.024	1.04 ± 0.057	0.995 ± 0.034	0.986 ± 0.025	0.965 ± 0.013	1.01 ± 0.025
F5H610 and related entries (UniProt Q9Y478)	1.01 ± 0.023	0.9916 ± 0.0069	0.992 ± 0.03	0.945 ± 0.053	0.932 ± 0.037	0.911 ± 0.029
E7ETA6 and related entries (UniProt Q15154)	1.03 ± 0.056	1.08 ± 0.035	1.03 ± 0.035	1 ± 0.062	0.963 ± 0.046	1.02 ± 0.049
E9PI30 and related entries (UniProt P56202)	0.986 ± 0.023	0.997 ± 0.016	0.984 ± 0.016	0.9712 ± 0.0083	0.96 ± 0.021	0.954 ± 0.04
E9PC47 and related entries (UniProt P53667)	1 ± 0.036	0.992 ± 0.027	1.02 ± 0.043	0.995 ± 0.026	0.997 ± 0.026	0.974 ± 0.012
E9PH64 and related entries (UniProt Q9Y6M9)	1.04 ± 0.08	1.15 ± 0.12	1.05 ± 0.052	1.04 ± 0.071	0.99 ± 0.015	1.01 ± 0.045
F5GWN5 and related entries (UniProt O00750)	1.006 ± 0.0069	0.981 ± 0.025	1.01 ± 0.033	0.989 ± 0.031	0.9687 ± 0.0093	0.96 ± 0.027
E9PJ55 and related entries (UniProt Q9NUJ3)	0.997 ± 0.04	0.969 ± 0.026	0.997 ± 0.035	0.957 ± 0.078	0.972 ± 0.058	0.954 ± 0.069
E9PF19 and related entries (UniProt Q9Y4P3)	1.02 ± 0.021	1.04 ± 0.017	1.12 ± 0.022	1.21 ± 0.055	1.25 ± 0.085	1.25 ± 0.07
E7EUI6 and related entries (UniProt P05556)	0.991 ± 0.026	1.09 ± 0.13	0.968 ± 0.056	0.9706 ± 0.009	0.929 ± 0.026	0.943 ± 0.026
E9PF46 and related entries (UniProt P14621)	1.006 ± 0.0073	1.03 ± 0.032	1.07 ± 0.055	1.08 ± 0.06	1.06 ± 0.037	1.1 ± 0.038
E9PGC5 and related entries (UniProt Q15262)	1.02 ± 0.011	1.04 ± 0.053	1.02 ± 0.028	1.01 ± 0.015	0.997 ± 0.011	1.01 ± 0.019
F8VX10 and related entries (UniProt Q9H9L4)	1.01 ± 0.014	1.06 ± 0.033	1.05 ± 0.033	1.02 ± 0.066	1.031 ± 0.0027	1.04 ± 0.044
F5H5I6 and related entries (UniProt Q12849)	1.01 ± 0.018	1.01 ± 0.018	1.01 ± 0.014	0.976 ± 0.027	0.972 ± 0.013	0.95 ± 0.018
F5H4V9 and related entries (UniProt Q16342)	1.01 ± 0.013	1.04 ± 0.011	1.04 ± 0.057	1.06 ± 0.024	1.09 ± 0.036	1.084 ± 0.0096
E9PNY1 and related entries (UniProt O95159)	0.966 ± 0.024	0.968 ± 0.038	0.948 ± 0.021	1.01 ± 0.057	1.01 ± 0.045	0.984 ± 0.012
E9PGC8 (UniProt P78559)	1.03 ± 0.036	1.06 ± 0.027	1.03 ± 0.031	1.04 ± 0.052	1.01 ± 0.054	1.03 ± 0.077
F8W9L6 and related entries (UniProt Q12912)	0.987 ± 0.026	0.997 ± 0.021	0.972 ± 0.017	0.974 ± 0.05	0.974 ± 0.017	0.9673 ± 0.0048
G3V3H3 and related entries (UniProt Q07866)	1.01 ± 0.023	1.04 ± 0.022	0.981 ± 0.013	0.985 ± 0.029	0.937 ± 0.03	0.974 ± 0.017
F5H514 and related entries (UniProt O95267)	1 ± 0.05	1.01 ± 0.058	0.995 ± 0.011	0.976 ± 0.061	0.998 ± 0.038	1.01 ± 0.049
E7EW18 and related entries (UniProt P06746)	1.07 ± 0.036	1.08 ± 0.048	1.1 ± 0.058	1.13 ± 0.062	1.14 ± 0.047	1.143 ± 0.0084
F5H858 and related entries (UniProt O75167)	0.9878 ± 0.0095	1.05 ± 0.077	1.04 ± 0.023	0.9989 ± 0.0088	1.03 ± 0.032	1.002 ± 0.0015
E7EPT4 and related entries (UniProt P19404)	0.924 ± 0.03	0.961 ± 0.073	0.914 ± 0.025	0.866 ± 0.04	0.881 ± 0.052	0.869 ± 0.052
F8W8D3 and related entries (UniProt Q14493)	1.02 ± 0.036	1.08 ± 0.046	1.04 ± 0.075	1.03 ± 0.035	1.02 ± 0.049	1.06 ± 0.071
E7EUI8 and related entries (UniProt P11413)	0.974 ± 0.049	0.852 ± 0.14	0.946 ± 0.026	0.928 ± 0.041	0.981 ± 0.028	0.892 ± 0.021
F5H2X7 and related entries (UniProt Q9ULV3)	1.06 ± 0.048	1.12 ± 0.027	1.05 ± 0.039	1.08 ± 0.037	1.02 ± 0.059	1.07 ± 0.069

Reformatted as comma-separated lines: part of the list above
Target,NP40-soluble protein abundance (concentration: 1mM),NP40-soluble protein abundance (concentration: 2mM),NP40-soluble protein abundance (concentration: 4mM),NP40-soluble protein abundance (concentration: 6mM),NP40-soluble protein abundance (concentration: 8mM),NP40-soluble protein abundance (concentration: 10mM)
E9PB61 and related entries (UniProt Q86V81),0.969 ± 0.032,1.08 ± 0.042,1.09 ± 0.027,1.27 ± 0.081,1.41 ± 0.14,1.6 ± 0.28
E7EQI7 and related entries (UniProt Q12768),0.998 ± 0.032,0.953 ± 0.036,0.994 ± 0.031,0.977 ± 0.04,1 ± 0.029,0.97 ± 0.019

Reference: the supplement of paper PMC6411743
